# Reference: the supplement of paper PMC12067093, “Discovery and optimisation of a covalent ligand for TRIM25 and its application to targeted protein ubiquitination” (Chemical Science, 2025)
# Protein sequences, listed by entry. Tags and fused reporters are not part of them. Lines headed by an entry give the natural chain unless they say otherwise; changes in a name come on top.
# UniProt Q9UHD1: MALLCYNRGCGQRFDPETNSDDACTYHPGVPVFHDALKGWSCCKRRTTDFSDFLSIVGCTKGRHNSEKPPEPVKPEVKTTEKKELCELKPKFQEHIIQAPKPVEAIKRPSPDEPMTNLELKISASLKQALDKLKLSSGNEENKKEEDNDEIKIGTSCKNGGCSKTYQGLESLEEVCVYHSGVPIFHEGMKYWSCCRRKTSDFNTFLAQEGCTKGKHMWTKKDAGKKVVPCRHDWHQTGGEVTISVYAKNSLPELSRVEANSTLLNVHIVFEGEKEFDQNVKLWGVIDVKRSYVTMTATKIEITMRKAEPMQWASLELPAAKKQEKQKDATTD
# UniProt Q9BUK0: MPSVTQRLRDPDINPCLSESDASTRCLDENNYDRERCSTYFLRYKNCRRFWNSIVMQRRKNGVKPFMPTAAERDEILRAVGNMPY
# UniProt O75122: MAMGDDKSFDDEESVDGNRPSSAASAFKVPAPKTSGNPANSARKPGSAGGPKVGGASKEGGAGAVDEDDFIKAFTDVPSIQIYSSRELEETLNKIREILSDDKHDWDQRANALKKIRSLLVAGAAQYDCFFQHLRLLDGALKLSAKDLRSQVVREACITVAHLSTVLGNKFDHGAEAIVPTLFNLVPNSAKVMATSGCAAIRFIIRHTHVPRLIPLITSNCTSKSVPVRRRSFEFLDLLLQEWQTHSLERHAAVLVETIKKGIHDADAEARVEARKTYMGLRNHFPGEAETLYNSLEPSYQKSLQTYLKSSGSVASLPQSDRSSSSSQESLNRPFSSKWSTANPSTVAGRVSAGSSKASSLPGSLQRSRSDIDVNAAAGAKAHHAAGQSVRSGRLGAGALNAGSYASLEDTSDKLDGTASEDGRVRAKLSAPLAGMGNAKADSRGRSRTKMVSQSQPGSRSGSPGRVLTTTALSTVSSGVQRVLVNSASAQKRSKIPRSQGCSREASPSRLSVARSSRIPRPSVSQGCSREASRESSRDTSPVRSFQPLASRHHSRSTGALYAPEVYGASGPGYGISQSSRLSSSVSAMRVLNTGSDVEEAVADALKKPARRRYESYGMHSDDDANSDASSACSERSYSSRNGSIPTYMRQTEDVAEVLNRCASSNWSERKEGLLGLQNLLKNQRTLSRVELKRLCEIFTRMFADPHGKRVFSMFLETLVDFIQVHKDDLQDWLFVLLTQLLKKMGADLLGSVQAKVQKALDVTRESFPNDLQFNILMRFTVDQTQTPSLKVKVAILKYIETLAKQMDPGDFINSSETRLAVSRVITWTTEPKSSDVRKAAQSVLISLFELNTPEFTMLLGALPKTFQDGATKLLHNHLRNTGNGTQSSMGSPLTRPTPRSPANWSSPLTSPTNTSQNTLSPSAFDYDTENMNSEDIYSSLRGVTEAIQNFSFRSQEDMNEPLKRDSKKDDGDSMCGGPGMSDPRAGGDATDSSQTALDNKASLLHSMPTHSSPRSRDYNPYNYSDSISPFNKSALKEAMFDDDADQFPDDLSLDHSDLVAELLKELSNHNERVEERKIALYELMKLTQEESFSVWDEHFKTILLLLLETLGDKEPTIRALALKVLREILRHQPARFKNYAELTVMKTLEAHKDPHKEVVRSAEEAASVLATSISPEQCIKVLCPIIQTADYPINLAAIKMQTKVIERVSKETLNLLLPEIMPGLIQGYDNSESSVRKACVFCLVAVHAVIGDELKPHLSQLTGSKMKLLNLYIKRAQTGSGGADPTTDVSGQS
# UniProt Q9NX63: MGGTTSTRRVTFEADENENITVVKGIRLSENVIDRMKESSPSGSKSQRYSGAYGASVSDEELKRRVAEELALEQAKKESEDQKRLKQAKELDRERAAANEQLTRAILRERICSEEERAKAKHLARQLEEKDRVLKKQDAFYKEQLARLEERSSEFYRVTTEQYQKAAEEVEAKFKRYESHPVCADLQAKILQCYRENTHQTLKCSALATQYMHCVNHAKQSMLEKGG
# UniProt O76071: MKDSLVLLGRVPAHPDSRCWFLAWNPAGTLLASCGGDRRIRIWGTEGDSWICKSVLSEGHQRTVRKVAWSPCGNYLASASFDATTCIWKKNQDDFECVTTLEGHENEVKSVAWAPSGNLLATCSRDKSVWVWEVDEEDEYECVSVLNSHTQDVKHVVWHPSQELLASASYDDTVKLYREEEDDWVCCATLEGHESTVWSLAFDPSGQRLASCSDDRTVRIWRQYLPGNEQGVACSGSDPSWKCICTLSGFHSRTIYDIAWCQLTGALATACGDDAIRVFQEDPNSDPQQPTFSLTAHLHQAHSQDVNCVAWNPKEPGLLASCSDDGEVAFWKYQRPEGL
# UniProt Q14839: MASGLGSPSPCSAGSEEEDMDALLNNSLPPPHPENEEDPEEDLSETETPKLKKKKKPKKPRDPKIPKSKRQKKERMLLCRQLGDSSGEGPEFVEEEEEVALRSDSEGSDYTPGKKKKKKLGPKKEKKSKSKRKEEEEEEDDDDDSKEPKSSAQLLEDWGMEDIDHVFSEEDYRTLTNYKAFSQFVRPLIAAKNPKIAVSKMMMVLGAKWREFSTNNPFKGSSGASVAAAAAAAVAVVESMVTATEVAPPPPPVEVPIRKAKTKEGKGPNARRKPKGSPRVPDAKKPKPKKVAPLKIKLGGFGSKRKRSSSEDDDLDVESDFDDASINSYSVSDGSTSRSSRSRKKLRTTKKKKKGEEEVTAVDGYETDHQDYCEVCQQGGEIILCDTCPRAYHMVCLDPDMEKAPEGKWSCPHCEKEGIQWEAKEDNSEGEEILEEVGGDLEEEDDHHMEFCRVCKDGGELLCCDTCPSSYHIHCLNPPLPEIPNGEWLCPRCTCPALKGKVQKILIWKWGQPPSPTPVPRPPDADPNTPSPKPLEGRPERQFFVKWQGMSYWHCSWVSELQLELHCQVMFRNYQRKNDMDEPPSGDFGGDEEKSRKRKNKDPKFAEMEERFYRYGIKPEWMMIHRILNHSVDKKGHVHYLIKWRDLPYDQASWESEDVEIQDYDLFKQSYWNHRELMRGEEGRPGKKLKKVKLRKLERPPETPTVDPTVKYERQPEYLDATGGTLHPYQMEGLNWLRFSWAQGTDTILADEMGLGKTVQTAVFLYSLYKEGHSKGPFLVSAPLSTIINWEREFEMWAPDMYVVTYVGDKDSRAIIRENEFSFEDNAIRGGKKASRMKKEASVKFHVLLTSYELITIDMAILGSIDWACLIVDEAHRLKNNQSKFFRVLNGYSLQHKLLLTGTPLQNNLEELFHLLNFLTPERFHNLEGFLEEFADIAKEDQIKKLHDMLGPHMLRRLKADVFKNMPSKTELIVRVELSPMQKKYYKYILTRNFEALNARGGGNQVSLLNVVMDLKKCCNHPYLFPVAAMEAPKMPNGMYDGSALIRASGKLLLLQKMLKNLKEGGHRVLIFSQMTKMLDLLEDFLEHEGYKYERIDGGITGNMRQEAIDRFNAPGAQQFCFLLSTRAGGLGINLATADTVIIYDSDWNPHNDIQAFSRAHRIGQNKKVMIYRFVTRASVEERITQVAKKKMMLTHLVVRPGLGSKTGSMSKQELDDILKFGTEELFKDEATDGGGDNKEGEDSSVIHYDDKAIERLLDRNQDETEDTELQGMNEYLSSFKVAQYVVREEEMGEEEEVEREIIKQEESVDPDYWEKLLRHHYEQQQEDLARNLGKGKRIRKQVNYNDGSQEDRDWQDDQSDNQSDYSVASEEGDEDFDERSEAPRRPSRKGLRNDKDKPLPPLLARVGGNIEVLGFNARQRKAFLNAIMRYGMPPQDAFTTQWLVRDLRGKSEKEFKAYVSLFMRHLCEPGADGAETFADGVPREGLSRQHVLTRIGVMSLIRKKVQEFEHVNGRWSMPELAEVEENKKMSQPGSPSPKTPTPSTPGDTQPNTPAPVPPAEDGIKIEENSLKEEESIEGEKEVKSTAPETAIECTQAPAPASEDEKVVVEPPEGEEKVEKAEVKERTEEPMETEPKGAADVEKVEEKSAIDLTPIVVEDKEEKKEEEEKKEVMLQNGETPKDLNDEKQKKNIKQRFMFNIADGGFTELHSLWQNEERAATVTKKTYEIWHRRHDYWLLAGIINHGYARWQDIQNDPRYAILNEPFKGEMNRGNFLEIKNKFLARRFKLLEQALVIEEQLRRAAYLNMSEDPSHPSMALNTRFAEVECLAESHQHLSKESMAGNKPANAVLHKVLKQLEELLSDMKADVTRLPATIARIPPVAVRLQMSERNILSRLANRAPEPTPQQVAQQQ
# UniProt Q92989: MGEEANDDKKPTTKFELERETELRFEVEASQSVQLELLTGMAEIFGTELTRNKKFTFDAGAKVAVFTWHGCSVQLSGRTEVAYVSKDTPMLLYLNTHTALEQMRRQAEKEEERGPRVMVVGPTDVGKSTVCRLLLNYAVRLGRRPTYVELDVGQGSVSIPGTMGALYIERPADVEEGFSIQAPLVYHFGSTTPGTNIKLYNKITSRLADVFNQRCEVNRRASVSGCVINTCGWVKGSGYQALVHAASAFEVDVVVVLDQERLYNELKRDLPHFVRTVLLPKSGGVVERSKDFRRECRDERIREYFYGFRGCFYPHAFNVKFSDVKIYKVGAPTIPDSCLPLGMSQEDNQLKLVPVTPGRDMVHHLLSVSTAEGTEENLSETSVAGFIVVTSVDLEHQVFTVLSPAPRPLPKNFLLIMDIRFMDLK
# UniProt O14646: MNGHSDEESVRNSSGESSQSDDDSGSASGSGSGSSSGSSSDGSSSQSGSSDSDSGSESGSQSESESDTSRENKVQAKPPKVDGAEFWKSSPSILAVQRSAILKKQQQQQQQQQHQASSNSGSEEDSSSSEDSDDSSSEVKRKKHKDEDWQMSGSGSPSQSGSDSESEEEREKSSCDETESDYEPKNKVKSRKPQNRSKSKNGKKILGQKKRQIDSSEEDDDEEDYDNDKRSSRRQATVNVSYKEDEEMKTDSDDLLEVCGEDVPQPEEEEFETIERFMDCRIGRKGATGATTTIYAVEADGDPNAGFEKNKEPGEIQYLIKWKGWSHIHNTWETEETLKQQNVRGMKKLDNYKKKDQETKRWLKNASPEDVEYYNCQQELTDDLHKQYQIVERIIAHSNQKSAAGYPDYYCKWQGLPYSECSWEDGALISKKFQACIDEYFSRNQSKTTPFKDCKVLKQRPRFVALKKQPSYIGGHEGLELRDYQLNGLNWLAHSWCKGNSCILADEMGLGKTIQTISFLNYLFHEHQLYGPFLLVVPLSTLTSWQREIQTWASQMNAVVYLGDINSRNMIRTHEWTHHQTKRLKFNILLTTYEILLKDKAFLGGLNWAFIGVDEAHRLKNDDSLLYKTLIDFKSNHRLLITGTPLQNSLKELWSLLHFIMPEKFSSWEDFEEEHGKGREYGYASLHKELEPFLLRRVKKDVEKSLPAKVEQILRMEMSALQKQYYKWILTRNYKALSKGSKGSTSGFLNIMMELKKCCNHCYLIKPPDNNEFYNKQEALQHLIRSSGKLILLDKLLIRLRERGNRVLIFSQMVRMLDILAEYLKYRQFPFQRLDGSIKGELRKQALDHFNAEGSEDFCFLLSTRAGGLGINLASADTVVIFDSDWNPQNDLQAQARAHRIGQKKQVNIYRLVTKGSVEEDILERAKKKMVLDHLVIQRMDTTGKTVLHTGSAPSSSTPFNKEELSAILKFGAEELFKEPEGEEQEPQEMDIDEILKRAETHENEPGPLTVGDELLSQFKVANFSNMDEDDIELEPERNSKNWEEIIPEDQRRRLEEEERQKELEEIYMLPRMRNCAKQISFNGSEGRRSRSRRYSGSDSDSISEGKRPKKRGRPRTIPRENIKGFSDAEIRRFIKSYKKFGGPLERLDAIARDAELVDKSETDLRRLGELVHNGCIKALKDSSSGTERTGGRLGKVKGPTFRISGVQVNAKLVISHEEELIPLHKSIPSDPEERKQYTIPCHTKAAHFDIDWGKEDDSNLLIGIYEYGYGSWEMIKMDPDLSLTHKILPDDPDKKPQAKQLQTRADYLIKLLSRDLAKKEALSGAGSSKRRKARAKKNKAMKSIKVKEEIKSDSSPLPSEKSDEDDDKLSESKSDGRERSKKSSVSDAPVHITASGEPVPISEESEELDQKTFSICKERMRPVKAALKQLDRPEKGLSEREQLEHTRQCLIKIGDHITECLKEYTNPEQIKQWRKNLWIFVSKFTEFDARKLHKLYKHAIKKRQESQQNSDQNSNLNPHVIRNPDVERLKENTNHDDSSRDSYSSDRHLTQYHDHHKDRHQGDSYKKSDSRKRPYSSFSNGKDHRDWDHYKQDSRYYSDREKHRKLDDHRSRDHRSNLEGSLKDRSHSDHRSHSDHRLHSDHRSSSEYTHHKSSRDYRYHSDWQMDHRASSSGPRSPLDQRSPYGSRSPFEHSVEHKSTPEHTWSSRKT
# UniProt Q9UFW8: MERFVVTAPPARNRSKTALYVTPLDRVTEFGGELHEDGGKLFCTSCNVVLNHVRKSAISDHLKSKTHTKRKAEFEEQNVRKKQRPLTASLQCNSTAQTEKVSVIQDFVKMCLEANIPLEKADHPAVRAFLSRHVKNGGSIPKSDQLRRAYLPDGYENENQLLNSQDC
# This is one part of the list.
# Compound: Cc1cc(ccc1-c1ccccc1)C(=O)N1CCCN(CC1)C(=O)CCl [compound 10]
# Experiment: probe-labelled cysteine peptide fold change vs DMSO (competition) (log2 fold change); higher = less target engagement (more negative = stronger competition)
# Settings: THP-1, incubation time: 4 h
# 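Also: competitive profiling in live THP-1 cells: cysteine peptides tagged with an iodoacetamide desthiobiotin (IA-DTB) probe, intensity after compound treatment relative to DMSO-treated cells.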
target,measurement,setting,value
CKAP5_Q14008_1795_ILDHLTMIDNKNESELEAHLCR (UniProt Q14008),probe-labelled cysteine peptide fold change,10 µM,-0.164
same,probe-labelled cysteine peptide fold change,50 µM,-0.477
CLTC_Q00610_491_VIQCFAETGQVQK (UniProt Q00610),probe-labelled cysteine peptide fold change,10 µM,-0.00321
same,probe-labelled cysteine peptide fold change,50 µM,0.2
CHORDC1_Q9UHD1_24_FDPETNSDDACTYHPGVPVFHDALK (UniProt Q9UHD1),probe-labelled cysteine peptide fold change,10 µM,-0.105
same,probe-labelled cysteine peptide fold change,50 µM,-0.041
CHORDC1_Q9UHD1_194+195_YWSCCR (UniProt Q9UHD1),probe-labelled cysteine peptide fold change,10 µM,0.199
same,probe-labelled cysteine peptide fold change,50 µM,-0.489
CHCHD7_Q9BUK0_16_LRDPDINPCLSESDASTR (UniProt Q9BUK0),probe-labelled cysteine peptide fold change,10 µM,-0.273
same,probe-labelled cysteine peptide fold change,50 µM,0.029
CKAP2_Q8WWK9_100_HCIPLKPSNELTNSTVVIDTHKPK (UniProt Q8WWK9),probe-labelled cysteine peptide fold change,10 µM,0.0423
same,probe-labelled cysteine peptide fold change,50 µM,-0.254
CLUH_O75153_84_ILAPGIEPFSLQVSPQEMVQEIHQVLMDREDTCHR (UniProt O75153),probe-labelled cysteine peptide fold change,10 µM,0.0397
same,probe-labelled cysteine peptide fold change,50 µM,-0.121
CLPX_O76031_586_LLLEPMFEVPNSDIVCVEVDK (UniProt O76031),probe-labelled cysteine peptide fold change,10 µM,-0.337
same,probe-labelled cysteine peptide fold change,50 µM,-0.0886
CLK3_P49761_294_EGHLVCR (UniProt P49761),probe-labelled cysteine peptide fold change,10 µM,0.0229
same,probe-labelled cysteine peptide fold change,50 µM,0.42
CIT_O14578_1392_CLECQVMCHPK (UniProt O14578),probe-labelled cysteine peptide fold change,10 µM,0.254
same,probe-labelled cysteine peptide fold change,50 µM,0.0669
CLASP2_O75122_1184_VLCPIIQTADYPINLAAIK (UniProt O75122),probe-labelled cysteine peptide fold change,10 µM,0.186
same,probe-labelled cysteine peptide fold change,50 µM,0.199
CHCHD3_Q9NX63_183_YESHPVCADLQAK (UniProt Q9NX63),probe-labelled cysteine peptide fold change,10 µM,-0.459
same,probe-labelled cysteine peptide fold change,50 µM,0.402
CIAO1_O76071_97_NQDDFECVTTLEGHENEVK (UniProt O76071),probe-labelled cysteine peptide fold change,10 µM,-0.109
same,probe-labelled cysteine peptide fold change,50 µM,-0.12
CHD4_Q14839_1827_FAEVECLAESHQHLSK (UniProt Q14839),probe-labelled cysteine peptide fold change,10 µM,-0.107
same,probe-labelled cysteine peptide fold change,50 µM,-0.204
CLCC1_Q96S66_60_DVSPDLSCADEISECYHK (UniProt Q96S66),probe-labelled cysteine peptide fold change,10 µM,-0.244
same,probe-labelled cysteine peptide fold change,50 µM,0.0652
CLP1_Q92989_71_VAVFTWHGCSVQLSGR (UniProt Q92989),probe-labelled cysteine peptide fold change,10 µM,-0.0212
same,probe-labelled cysteine peptide fold change,50 µM,0.0811
CHST13_Q8NET6_81_DLLNSACSR (UniProt Q8NET6),probe-labelled cysteine peptide fold change,10 µM,-0.0161
same,probe-labelled cysteine peptide fold change,50 µM,-0.121
CHD4_Q14839_1468_HLCEPGADGAETFADGVPR (UniProt Q14839),probe-labelled cysteine peptide fold change,10 µM,-0.0123
same,probe-labelled cysteine peptide fold change,50 µM,0.148
CHST14_Q8NCH0_117_AVCGQPGMPR (UniProt Q8NCH0),probe-labelled cysteine peptide fold change,10 µM,0.00457
same,probe-labelled cysteine peptide fold change,50 µM,0.118
CHTF8_P0CG13_83_HTPGDQDCDELGR (UniProt P0CG13),probe-labelled cysteine peptide fold change,10 µM,0.278
same,probe-labelled cysteine peptide fold change,50 µM,0.369
CLUH_O75153_753_DAAAFLLSCQIPGLVK (UniProt O75153),probe-labelled cysteine peptide fold change,10 µM,0.0917
same,probe-labelled cysteine peptide fold change,50 µM,0.00616
CLASP2_O75122_221_LIPLITSNCTSK (UniProt O75122),probe-labelled cysteine peptide fold change,10 µM,-0.0194
same,probe-labelled cysteine peptide fold change,50 µM,0.0911
CIP2A_Q8TCG1_752_DLQITCDSLNK (UniProt Q8TCG1),probe-labelled cysteine peptide fold change,10 µM,0.0426
same,probe-labelled cysteine peptide fold change,50 µM,-0.0635
CHKB_Q9Y259_85_CSLPDHLPSVGEEPREVLLR (UniProt Q9Y259),probe-labelled cysteine peptide fold change,10 µM,0.0237
same,probe-labelled cysteine peptide fold change,50 µM,0.406
CHAF1B_Q13112_6_VITCEIAWHNK (UniProt Q13112),probe-labelled cysteine peptide fold change,10 µM,0.0145
same,probe-labelled cysteine peptide fold change,50 µM,0.0667
CHD9_Q3L8U1_993_CVIIDEAHR (UniProt Q3L8U1),probe-labelled cysteine peptide fold change,10 µM,-0.188
same,probe-labelled cysteine peptide fold change,50 µM,-0.144
CHD1_O14646_1176_LGELVHNGCIK (UniProt O14646),probe-labelled cysteine peptide fold change,10 µM,-0.0528
same,probe-labelled cysteine peptide fold change,50 µM,0.00367
CLCN3_P51790_733_VCFAQHTPSLPAESPRPLK (UniProt P51790),probe-labelled cysteine peptide fold change,10 µM,0.0452
same,probe-labelled cysteine peptide fold change,50 µM,-0.119
CMAS_Q8NFW8_394_VGLSGAPADACSTAQK (UniProt Q8NFW8),probe-labelled cysteine peptide fold change,10 µM,-0.0398
same,probe-labelled cysteine peptide fold change,50 µM,-0.128
CHTF18_Q8WVB6_373_VALLCGPPGLGK (UniProt Q8WVB6),probe-labelled cysteine peptide fold change,10 µM,0.0809
same,probe-labelled cysteine peptide fold change,50 µM,0.0137
CIAO1_O76071_123_SVAWAPSGNLLATCSR (UniProt O76071),probe-labelled cysteine peptide fold change,10 µM,0.0858
same,probe-labelled cysteine peptide fold change,50 µM,0.18
CHM_P24386_302_RMLMKFLTFCMEYEK (UniProt P24386),probe-labelled cysteine peptide fold change,10 µM,0.0319
same,probe-labelled cysteine peptide fold change,50 µM,-0.572
CHI3L1_P36222_26_LVCYYTSWSQYR (UniProt P36222),probe-labelled cysteine peptide fold change,10 µM,-0.287
same,probe-labelled cysteine peptide fold change,50 µM,0.142
CLIC6_Q96NY7_641_FLDGDELTLADCNLLPK (UniProt Q96NY7),probe-labelled cysteine peptide fold change,10 µM,-0.2
same,probe-labelled cysteine peptide fold change,50 µM,0.264
CHCHD3_Q9NX63_204_CSALATQYMHCVNHAK (UniProt Q9NX63),probe-labelled cysteine peptide fold change,10 µM,-0.212
same,probe-labelled cysteine peptide fold change,50 µM,-0.0823
CHD4_Q14839_1018_CCNHPYLFPVAAMEAPK (UniProt Q14839),probe-labelled cysteine peptide fold change,10 µM,-0.145
same,probe-labelled cysteine peptide fold change,50 µM,-0.259
CHD8_Q9HCK8_1947_HGVSQTDCNIMQDPDFSFLAAR (UniProt Q9HCK8),probe-labelled cysteine peptide fold change,10 µM,-0.33
same,probe-labelled cysteine peptide fold change,50 µM,-0.00258
CGGBP1_Q9UFW8_92_QRPLTASLQCNSTAQTEK (UniProt Q9UFW8),probe-labelled cysteine peptide fold change,10 µM,-0.269
same,probe-labelled cysteine peptide fold change,50 µM,-0.375
CLTC_Q00610_666_RAVVHTHLLNPEWLVNYFGSLSVEDSLECLR (UniProt Q00610),probe-labelled cysteine peptide fold change,10 µM,0.121
same,probe-labelled cysteine peptide fold change,50 µM,0.496
CHD7_Q9P2D1_1101_CVVIDEAHR (UniProt Q9P2D1),probe-labelled cysteine peptide fold change,10 µM,-0.0182
same,probe-labelled cysteine peptide fold change,50 µM,0.161
CMPK2_Q5EBM0_226_AVLEECTSFIPEAR (UniProt Q5EBM0),probe-labelled cysteine peptide fold change,10 µM,-0.133
same,probe-labelled cysteine peptide fold change,50 µM,-0.0982
CLK2_P49760_180_VVQCVDHR (UniProt P49760),probe-labelled cysteine peptide fold change,10 µM,0.117
same,probe-labelled cysteine peptide fold change,50 µM,0.416

# Three entries from above, with tabs.
target	measurement	setting	value
CLCC1_Q96S66_60_DVSPDLSCADEISECYHK (UniProt Q96S66)	probe-labelled cysteine peptide fold change	50 µM	0.0652
CLP1_Q92989_71_VAVFTWHGCSVQLSGR (UniProt Q92989)	probe-labelled cysteine peptide fold change	10 µM	-0.0212
same	probe-labelled cysteine peptide fold change	50 µM	0.0811

# Reprinted from above for reference:
target,measurement,setting,value
CHD1_O14646_1176_LGELVHNGCIK (UniProt O14646),probe-labelled cysteine peptide fold change,10 µM,-0.0528
same,probe-labelled cysteine peptide fold change,50 µM,0.00367
